Test results taken from patent publication US20090081704A1, “COMPOSITIONS, METHODS AND KITS FOR REAL-TIME ENZYME ASSAYS USING CHARGED MOLECULES” (priority 2004, published 2009).

Assay: Quenching of hydrophobic molecule fluorescence by added charge-balance molecule (micelle formation)
Type: physicochemical

B1: MPB: charge-balance molecule, Myelin Basic Protein (Upstate USA, Inc. cat. no: 13-104), positively charged (+18) (protein, UniProt P02687 1-169, looked up)
Myelin basic protein: AAQKRPSQRSKYLASASTMDHARHGFLPRHRDTGILDSLGRFFGSDRGAPKRGSGKDGHHAARTTHYGSLPQKAQGHRPQDENPVVHFFKNIVTPRTPPPSQGKGRGLSLSRFSWGAEGQKPGFGYGGRASDYKSAHKGLKGHDAQGTLSKIFKLGGRDSRSGSPMARR
- quenching of fluorescence of hydrophobic molecule C16OOOK(Dye2)EEIYGEF-amide (1:1 molar ratio or above to hydrophobic molecule (10 μM)): almost complete quenching
- quenching of fluorescence of hydrophobic molecule C16OOOK(Dye2)EEIYGEF-amide (less than 1:1 molar ratio to hydrophobic molecule (10 μM)): quenches the fluorescence
